Assay results as given in the supplement of paper PMC10849652.
This is one part of the list.

By UniProt entry, the sequences of proteins in these tests, tags left out. Where a name states a change or a piece, a line headed by the entry shows the natural chain unless it says otherwise.
UniProt Q6P1X6: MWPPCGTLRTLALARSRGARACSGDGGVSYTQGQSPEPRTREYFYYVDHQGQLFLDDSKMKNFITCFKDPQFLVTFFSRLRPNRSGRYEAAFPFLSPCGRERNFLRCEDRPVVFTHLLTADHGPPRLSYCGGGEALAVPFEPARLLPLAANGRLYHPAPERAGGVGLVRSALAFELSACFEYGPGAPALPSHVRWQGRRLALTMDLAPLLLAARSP
UniProt Q13901: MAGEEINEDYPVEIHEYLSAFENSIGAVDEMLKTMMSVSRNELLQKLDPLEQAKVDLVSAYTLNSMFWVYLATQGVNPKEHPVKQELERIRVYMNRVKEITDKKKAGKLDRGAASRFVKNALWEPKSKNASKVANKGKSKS
UniProt Q96RR4, whole entry, looked up: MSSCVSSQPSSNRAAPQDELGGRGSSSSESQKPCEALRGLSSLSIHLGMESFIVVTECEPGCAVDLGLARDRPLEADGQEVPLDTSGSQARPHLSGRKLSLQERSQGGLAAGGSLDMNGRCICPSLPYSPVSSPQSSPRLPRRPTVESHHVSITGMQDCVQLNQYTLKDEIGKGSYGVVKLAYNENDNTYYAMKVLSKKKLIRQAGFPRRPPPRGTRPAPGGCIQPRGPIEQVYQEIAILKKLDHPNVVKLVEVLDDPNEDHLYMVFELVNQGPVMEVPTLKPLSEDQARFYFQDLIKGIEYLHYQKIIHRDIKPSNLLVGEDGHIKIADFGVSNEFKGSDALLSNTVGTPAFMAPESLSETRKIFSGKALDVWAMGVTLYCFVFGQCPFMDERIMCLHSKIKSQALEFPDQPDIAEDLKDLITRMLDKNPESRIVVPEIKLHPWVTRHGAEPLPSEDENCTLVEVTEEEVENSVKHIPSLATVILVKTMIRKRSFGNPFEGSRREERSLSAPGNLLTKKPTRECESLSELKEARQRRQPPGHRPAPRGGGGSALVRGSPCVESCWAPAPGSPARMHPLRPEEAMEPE
UniProt Q8N1A6: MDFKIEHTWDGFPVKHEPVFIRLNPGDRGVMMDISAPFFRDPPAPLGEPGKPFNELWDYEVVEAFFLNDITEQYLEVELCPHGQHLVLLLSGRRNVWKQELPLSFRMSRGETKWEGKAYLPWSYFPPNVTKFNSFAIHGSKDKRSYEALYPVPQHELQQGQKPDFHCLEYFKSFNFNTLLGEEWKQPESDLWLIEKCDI
UniProt P49069: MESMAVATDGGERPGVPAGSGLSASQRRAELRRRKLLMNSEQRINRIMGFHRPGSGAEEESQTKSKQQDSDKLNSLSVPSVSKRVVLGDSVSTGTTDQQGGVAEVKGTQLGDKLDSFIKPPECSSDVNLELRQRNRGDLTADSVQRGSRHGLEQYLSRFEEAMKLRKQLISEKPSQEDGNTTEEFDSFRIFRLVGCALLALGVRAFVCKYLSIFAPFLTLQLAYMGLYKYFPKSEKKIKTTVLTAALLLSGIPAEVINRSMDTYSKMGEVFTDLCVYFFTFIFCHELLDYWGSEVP
UniProt P17655: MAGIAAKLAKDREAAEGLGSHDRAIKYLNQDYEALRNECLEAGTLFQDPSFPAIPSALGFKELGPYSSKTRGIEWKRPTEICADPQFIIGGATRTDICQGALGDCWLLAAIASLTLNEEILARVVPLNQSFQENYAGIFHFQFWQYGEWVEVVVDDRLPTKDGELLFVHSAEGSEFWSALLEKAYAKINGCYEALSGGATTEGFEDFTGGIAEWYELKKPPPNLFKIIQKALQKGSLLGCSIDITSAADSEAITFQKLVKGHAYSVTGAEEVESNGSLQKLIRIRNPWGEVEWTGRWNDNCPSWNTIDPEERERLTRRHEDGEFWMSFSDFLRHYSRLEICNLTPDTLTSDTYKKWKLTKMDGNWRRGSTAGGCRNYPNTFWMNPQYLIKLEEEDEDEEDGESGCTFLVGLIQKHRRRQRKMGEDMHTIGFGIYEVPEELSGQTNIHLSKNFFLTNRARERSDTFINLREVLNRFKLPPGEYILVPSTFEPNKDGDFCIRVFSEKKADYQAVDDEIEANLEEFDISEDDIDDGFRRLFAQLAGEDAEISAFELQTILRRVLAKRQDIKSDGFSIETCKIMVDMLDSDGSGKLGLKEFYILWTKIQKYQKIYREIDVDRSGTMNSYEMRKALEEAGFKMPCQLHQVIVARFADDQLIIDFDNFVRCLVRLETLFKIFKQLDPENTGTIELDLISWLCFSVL
UniProt Q8WVQ1: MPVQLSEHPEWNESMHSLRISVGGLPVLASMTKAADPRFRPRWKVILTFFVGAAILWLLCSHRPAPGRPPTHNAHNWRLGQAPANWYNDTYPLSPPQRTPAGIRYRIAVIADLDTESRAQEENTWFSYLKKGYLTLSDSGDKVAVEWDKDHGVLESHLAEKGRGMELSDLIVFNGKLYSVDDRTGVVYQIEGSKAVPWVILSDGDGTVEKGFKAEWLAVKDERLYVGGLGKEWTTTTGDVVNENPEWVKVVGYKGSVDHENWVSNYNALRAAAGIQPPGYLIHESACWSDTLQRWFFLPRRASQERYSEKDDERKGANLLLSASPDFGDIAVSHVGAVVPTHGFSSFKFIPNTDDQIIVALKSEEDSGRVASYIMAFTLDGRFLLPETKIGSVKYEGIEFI
UniProt Q7L1Q6: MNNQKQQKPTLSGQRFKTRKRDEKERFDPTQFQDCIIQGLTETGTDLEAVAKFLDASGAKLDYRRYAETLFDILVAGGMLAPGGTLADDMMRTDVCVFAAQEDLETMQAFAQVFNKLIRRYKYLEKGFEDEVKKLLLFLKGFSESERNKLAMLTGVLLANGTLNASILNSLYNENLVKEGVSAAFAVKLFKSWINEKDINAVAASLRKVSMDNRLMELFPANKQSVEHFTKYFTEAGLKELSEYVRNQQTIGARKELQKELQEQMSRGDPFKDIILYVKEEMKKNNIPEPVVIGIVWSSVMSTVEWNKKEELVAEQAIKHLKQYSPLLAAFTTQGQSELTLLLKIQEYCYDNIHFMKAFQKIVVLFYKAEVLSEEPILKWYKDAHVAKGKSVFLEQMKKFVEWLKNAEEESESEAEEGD
UniProt Q96NL8: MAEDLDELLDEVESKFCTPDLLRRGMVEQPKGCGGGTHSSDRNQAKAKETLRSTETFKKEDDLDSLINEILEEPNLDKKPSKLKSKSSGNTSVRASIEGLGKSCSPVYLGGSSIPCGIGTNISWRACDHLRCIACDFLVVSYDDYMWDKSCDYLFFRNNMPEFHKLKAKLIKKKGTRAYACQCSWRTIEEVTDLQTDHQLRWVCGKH
UniProt O43684, whole entry, looked up: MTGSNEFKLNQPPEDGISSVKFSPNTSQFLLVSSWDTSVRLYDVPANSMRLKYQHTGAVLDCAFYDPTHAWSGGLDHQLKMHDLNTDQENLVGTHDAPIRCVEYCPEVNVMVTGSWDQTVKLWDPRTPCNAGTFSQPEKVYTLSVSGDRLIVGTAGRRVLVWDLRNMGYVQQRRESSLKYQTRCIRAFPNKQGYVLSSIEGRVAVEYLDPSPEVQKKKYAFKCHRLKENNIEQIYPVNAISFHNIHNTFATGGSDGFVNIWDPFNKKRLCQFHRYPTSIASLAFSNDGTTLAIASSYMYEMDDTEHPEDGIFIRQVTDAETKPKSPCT
UniProt P05937: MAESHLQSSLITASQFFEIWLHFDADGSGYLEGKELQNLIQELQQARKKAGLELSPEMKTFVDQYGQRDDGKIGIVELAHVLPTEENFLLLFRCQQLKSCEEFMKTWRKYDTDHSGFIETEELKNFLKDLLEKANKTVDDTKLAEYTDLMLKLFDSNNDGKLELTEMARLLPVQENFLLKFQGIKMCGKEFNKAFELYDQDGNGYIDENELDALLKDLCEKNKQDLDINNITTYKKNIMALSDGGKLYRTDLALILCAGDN
UniProt Q9P1Z2: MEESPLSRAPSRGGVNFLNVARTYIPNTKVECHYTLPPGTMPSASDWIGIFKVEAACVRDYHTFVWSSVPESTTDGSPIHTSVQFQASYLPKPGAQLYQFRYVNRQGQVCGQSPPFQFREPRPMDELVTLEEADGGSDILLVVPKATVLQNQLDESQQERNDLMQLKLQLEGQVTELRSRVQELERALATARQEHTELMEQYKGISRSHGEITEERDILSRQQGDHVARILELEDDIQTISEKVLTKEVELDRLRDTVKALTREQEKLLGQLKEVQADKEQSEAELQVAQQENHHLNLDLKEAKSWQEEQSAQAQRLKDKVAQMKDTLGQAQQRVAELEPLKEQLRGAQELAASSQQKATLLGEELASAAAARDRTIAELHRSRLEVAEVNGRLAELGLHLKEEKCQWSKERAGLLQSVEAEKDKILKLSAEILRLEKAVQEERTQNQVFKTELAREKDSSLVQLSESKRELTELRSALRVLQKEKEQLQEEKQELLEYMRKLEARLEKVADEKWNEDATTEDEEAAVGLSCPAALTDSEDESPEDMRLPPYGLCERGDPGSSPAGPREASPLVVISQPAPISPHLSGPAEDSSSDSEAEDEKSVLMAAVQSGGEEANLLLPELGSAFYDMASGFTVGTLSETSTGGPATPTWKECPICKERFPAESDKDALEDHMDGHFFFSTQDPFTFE
UniProt Q9UFG5: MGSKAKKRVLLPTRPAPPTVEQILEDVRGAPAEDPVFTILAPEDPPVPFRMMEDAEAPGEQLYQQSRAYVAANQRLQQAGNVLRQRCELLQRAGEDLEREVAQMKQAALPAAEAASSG
UniProt Q9BVC5: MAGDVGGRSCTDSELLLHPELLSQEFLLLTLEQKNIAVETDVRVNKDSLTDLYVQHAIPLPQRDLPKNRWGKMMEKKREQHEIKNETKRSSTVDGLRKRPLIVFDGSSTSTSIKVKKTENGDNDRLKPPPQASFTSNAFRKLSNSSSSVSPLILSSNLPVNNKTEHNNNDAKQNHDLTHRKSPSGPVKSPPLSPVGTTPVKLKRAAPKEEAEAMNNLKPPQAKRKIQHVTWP
UniProt P00915: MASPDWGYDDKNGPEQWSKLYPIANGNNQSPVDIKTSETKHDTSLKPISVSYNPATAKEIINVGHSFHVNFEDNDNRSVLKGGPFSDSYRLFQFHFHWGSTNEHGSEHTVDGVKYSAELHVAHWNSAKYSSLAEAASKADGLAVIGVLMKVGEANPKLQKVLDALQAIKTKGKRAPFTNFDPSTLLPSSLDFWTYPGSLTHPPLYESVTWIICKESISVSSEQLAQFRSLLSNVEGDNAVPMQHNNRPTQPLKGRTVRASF

Key:
Experiment in all cases: log2 fold change, soluble protein after heating vs DMSO (PISA); higher = thermal stabilisation; K562 lysate, 10 uM; active = over 0.2 and 3.5 SD of the protein, either way, in both replicates (recomputed)
lapatinib = compound: CS(=O)(=O)CCNCc1ccc(-c2ccc3ncnc(Nc4ccc(OCc5cccc(F)c5)c(Cl)c4)c3c2)o1 [lapatinib]
Summary of the method: (§1)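 Dounce homogenisation of K562 pellets in PBS pH 7.4 with 1 mM MgCl2 produced a crude extract, used at 1 mg/mL protein. Exposure to 10 μM compound lasted 30 min, and aliquots were then heated for 3 min across 48°C-58°C, pooled and brought to 0.5% NP-40 at 4°C. The supernatant after 21,000xg for 90 min was quantified by TMTpro 16plex LC-MS/MS with channel sums equalised. Duplicate values are given as log-two fold change in thermal stability relative to solvent controls.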

pictilisib = compound: CS(=O)(=O)N1CCN(Cc2cc3nc(-c4cccc5[nH]ncc45)nc(N4CCOCC4)c3s2)CC1 [pictilisib]
Summary of the method: as §1

crizotinib = compound: C[C@@H](Oc1cc(-c2cnn(C3CCNCC3)c2)cnc1N)c1c(Cl)ccc(F)c1Cl [crizotinib]
Summary of the method: as §1

[1] = compound: C[C@H](C1=CC=C(C=C1)C(=O)NC2=C3C=CNC3=NC=C2)N
Summary of the method: as §1

duvelisib = compound: C[C@H](Nc1ncnc2nc[nH]c12)c1cc2cccc(Cl)c2c(=O)n1-c1ccccc1 [duvelisib]
Summary of the method: as §1

gandotinib = compound: Cc1cc(Nc2cc(CN3CCOCC3)c3nc(C)c(Cc4ccc(Cl)cc4F)n3n2)n[nH]1 [gandotinib]
Summary of the method: as §1

tozasertib = compound: Cc1cc(Nc2cc(N3CCN(C)CC3)nc(Sc3ccc(NC(=O)C4CC4)cc3)n2)n[nH]1 [tozasertib]
Summary of the method: as §1

doramapimod = compound: Cc1ccc(-n2nc(C(C)(C)C)cc2NC(=O)Nc2ccc(OCCN3CCOCC3)c3ccccc23)cc1 [doramapimod]
Summary of the method: as §1

bafetinib = compound: Cc1ccc(NC(=O)c2ccc(CN3CC[C@H](N(C)C)C3)c(C(F)(F)F)c2)cc1Nc1nccc(-c2cncnc2)n1 [bafetinib]
Summary of the method: as §1

[2] = compound: Cc1cccc(CC(=O)N2CCc3c2ccc(-c2cn(C)c4ncnc(N)c24)c3F)n1
Summary of the method: as §1

nilotinib = compound: Cc1cn(-c2cc(NC(=O)c3ccc(C)c(Nc4nccc(-c5cccnc5)n4)c3)cc(C(F)(F)F)c2)cn1 [nilotinib]
Summary of the method: as §1

[3] = compound: Cc1nc(Nc2n[nH]c3c2CN(C(=O)N[C@H](CN(C)C)c2ccccc2)C3(C)C)c2sccc2n1
Summary of the method: as §1

dasatinib = compound: Cc1nc(Nc2ncc(C(=O)Nc3c(C)cccc3Cl)s2)cc(N2CCN(CCO)CC2)n1 [dasatinib]
Summary of the method: as §1

[4] = compound: Cc1ncc(-c2ccnc(Nc3ccc(S(C)(=O)=O)cc3)n2)n1C(C)C
Summary of the method: as §1

[5] = compound: Cn1cc(-c2ccc3c(c2)CCN3C(=O)Cc2cccc(C(F)(F)F)c2)c2c(N)ncnc21
Summary of the method: as §1

quisinostat = compound: Cn1cc(CNCC2CCN(c3ncc(C(=O)NO)cn3)CC2)c2ccccc21 [quisinostat]
Summary of the method: as §1

tipifarnib = compound: Cn1cncc1[C@@](N)(c1ccc(Cl)cc1)c1ccc2c(c1)c(-c1cccc(Cl)c1)cc(=O)n2C [tipifarnib]
Summary of the method: as §1

[6] = compound: NC(=O)Nc1cc(-c2cccc(F)c2)sc1C(=O)N[C@H]1CCCNC1
Summary of the method: as §1

[7] = compound: NC(=O)c1cnc(N[C@@H]2CCCC[C@@H]2N)nc1Nc1cccc(-n2nccn2)c1
Summary of the method: as §1

[8] = compound: NC1(c2ccc(-c3nc4ccn5c(=O)[nH]nc5c4cc3-c3ccccc3)cc2)CCC1
Summary of the method: as §1

Target	log2 fold change (lapatinib)	log2 fold change (pictilisib)	log2 fold change (crizotinib)	log2 fold change [1]	log2 fold change (duvelisib)	log2 fold change (gandotinib)	log2 fold change (tozasertib)	log2 fold change (doramapimod)	log2 fold change (bafetinib)	log2 fold change [2]	log2 fold change (nilotinib)	log2 fold change [3]	log2 fold change (dasatinib)	log2 fold change [4]	log2 fold change [5]	log2 fold change (quisinostat)	log2 fold change (tipifarnib)	log2 fold change [6]	log2 fold change [7]	log2 fold change [8]
C8orf82 (UniProt Q6P1X6)	inactive: 0.022	inactive: -0.022	inactive: -0.035	inactive: -0.017	inactive: 0.029	inactive: 0	inactive: -0.016	inactive: 0.045	inactive: 0.041	inactive: 0.024	inactive: 0.021	inactive: -0.076	inactive: -0.022	inactive: 0.053	inactive: 0.04	inactive: -0.024	inactive: 0.044	inactive: -0.013	inactive: 0.006	inactive: -0.041
C1D (UniProt Q13901)	inactive: -0.063	inactive: 0.039	inactive: -0.092	inactive: 0.028	inactive: -0.008	inactive: -0.012	inactive: -0.037	inactive: -0.029	inactive: 0.016	inactive: -0.032	inactive: -0.003	inactive: -0.036	inactive: -0.001	inactive: 0.021	inactive: -0.024	inactive: -0.018	inactive: 0.021	inactive: 0.028	inactive: 0.052	inactive: -0.013
CAMKK2 (UniProt Q96RR4)	inactive: -0.018	inactive: 0.006	inactive: 0.108	inactive: 0.023	inactive: 0.058	active: 0.257	inactive: -0.055	inactive: 0.031	inactive: 0.018	inactive: -0.056	inactive: -0.038	inactive: 0.176	inactive: 0.031	inactive: 0.028	inactive: 0.023	inactive: -0.01	inactive: -0.037	inactive: 0.1	inactive: -0.046	inactive: 0
C4orf33 (UniProt Q8N1A6)	inactive: -0.005	inactive: 0.005	inactive: -0.047	inactive: -0.133	inactive: 0.033	inactive: 0.06	inactive: 0.074	inactive: 0.02	inactive: -0.067	inactive: 0.121	inactive: -0.024	inactive: -0.032	inactive: -0.078	inactive: 0.075	inactive: 0.011	inactive: -0.037	inactive: 0.057	inactive: 0.041	inactive: 0.014	inactive: -0.028
C12orf73 (UniProt Q69YU5)	inactive: 0.099	inactive: -0.019	inactive: 0.019	inactive: 0.008	inactive: 0.055	inactive: 0.001	–	inactive: 0	inactive: 0.087	inactive: -0.034	inactive: 0.047	inactive: 0.07	inactive: 0.118	inactive: 0.061	inactive: -0.046	inactive: 0.055	inactive: -0.032	inactive: -0.113	inactive: 0.049	inactive: 0
CAMLG (UniProt P49069)	inactive: 0.009	inactive: -0.039	inactive: 0.014	inactive: 0.179	inactive: -0.001	inactive: -0.058	inactive: -0.037	inactive: -0.005	inactive: 0	inactive: -0.12	inactive: 0.048	inactive: -0.082	inactive: 0.017	inactive: -0.069	inactive: 0.064	inactive: 0.01	inactive: -0.084	inactive: 0.005	inactive: -0.009	inactive: 0.046
CAPN2 (UniProt P17655)	inactive: 0.028	inactive: -0.001	inactive: -0.02	inactive: 0.068	inactive: -0.01	inactive: 0.03	inactive: 0.008	inactive: 0.028	inactive: 0.012	inactive: -0.032	inactive: 0.01	inactive: 0.027	inactive: 0.01	inactive: 0.017	inactive: 0.008	inactive: 0.03	inactive: -0.019	inactive: -0.022	inactive: 0.008	inactive: -0.026
CANT1 (UniProt Q8WVQ1)	inactive: -0.006	inactive: -0.082	inactive: 0.033	inactive: -0.041	inactive: -0.041	inactive: -0.029	inactive: -0.01	inactive: 0.031	inactive: -0.012	inactive: 0.004	inactive: -0.001	inactive: -0.022	inactive: -0.019	inactive: -0.002	inactive: 0.016	inactive: 0.075	inactive: -0.037	inactive: -0.024	inactive: -0.002	inactive: 0.021
BZW1 isoform 3 (UniProt Q7L1Q6)	inactive: -0.033	inactive: 0.018	inactive: 0.017	inactive: -0.054	inactive: 0.007	inactive: -0.091	inactive: 0.002	inactive: 0.003	inactive: -0.022	inactive: 0.039	inactive: -0.005	inactive: -0.008	inactive: -0.032	inactive: -0.001	inactive: 0.035	inactive: 0.056	inactive: -0.02	inactive: 0.012	inactive: 0.013	inactive: 0.023
C8orf37 (UniProt Q96NL8)	inactive: -0.095	inactive: 0.006	inactive: 0.043	active: -0.559	inactive: 0.046	inactive: -0.06	inactive: 0.006	inactive: 0.043	inactive: 0.09	inactive: 0.238	–	–	inactive: 0.083	–	inactive: 0.056	inactive: 0.004	–	inactive: -0.01	inactive: 0.298	inactive: 0.029
BUB3 (UniProt O43684)	inactive: 0.022	inactive: -0.026	inactive: 0.044	inactive: -0.046	inactive: 0.019	inactive: 0.013	inactive: -0.009	inactive: 0.079	inactive: -0.024	inactive: 0.019	inactive: 0.005	inactive: -0.041	inactive: -0.012	inactive: -0.02	inactive: -0.005	inactive: -0.011	inactive: 0.008	inactive: 0.016	inactive: -0.005	inactive: 0.03
CALB1 (UniProt P05937)	inactive: -0.006	inactive: -0.012	inactive: 0.066	inactive: 0.149	inactive: -0.003	inactive: -0.086	inactive: 0.014	inactive: -0.014	inactive: 0.023	inactive: -0.097	inactive: -0.003	inactive: 0.004	inactive: 0.041	inactive: 0.007	inactive: 0.024	inactive: 0.046	inactive: 0.016	inactive: -0.029	inactive: 0.013	inactive: 0.007
CALCOCO1 (UniProt Q9P1Z2)	inactive: -0.007	inactive: 0.021	inactive: -0.044	inactive: -0.028	inactive: 0	inactive: 0.05	inactive: 0.084	inactive: 0.033	inactive: -0.053	inactive: -0.008	inactive: -0.054	inactive: 0.031	inactive: -0.012	inactive: -0.041	inactive: 0.034	inactive: -0.042	inactive: 0.046	inactive: 0.02	inactive: -0.041	inactive: -0.009
C19orf25 (UniProt Q9UFG5)	inactive: 0.028	inactive: -0.052	inactive: -0.051	inactive: 0.122	inactive: 0.029	inactive: -0.12	–	inactive: -0.016	inactive: -0.083	inactive: -0.046	inactive: 0.058	inactive: -0.043	inactive: 0.026	inactive: 0.081	inactive: -0.006	inactive: -0.008	inactive: -0.065	inactive: 0.035	inactive: -0.026	inactive: -0.057
C2orf49 (UniProt Q9BVC5)	inactive: 0.029	inactive: 0.043	inactive: 0.022	inactive: 0.001	inactive: 0.006	inactive: 0.008	inactive: 0.041	inactive: -0.029	inactive: -0.025	inactive: 0.01	inactive: -0.021	inactive: -0.024	inactive: 0.023	inactive: -0.022	inactive: 0.025	inactive: -0.039	inactive: 0.009	inactive: -0.01	inactive: -0.024	inactive: -0.014
CA1 (UniProt P00915)	inactive: -0.015	inactive: -0.005	inactive: 0.001	inactive: -0.102	inactive: 0.027	inactive: 0.04	inactive: 0.008	inactive: 0.005	inactive: 0.011	inactive: 0.04	inactive: 0.006	inactive: 0.023	inactive: 0.006	inactive: 0.009	inactive: 0.016	inactive: -0.008	inactive: 0.066	inactive: -0.007	inactive: -0.007	inactive: -0.008

Copied from above for reference:
Target	log2 fold change (lapatinib)	log2 fold change (pictilisib)	log2 fold change (crizotinib)	log2 fold change [1]	log2 fold change (duvelisib)	log2 fold change (gandotinib)	log2 fold change (tozasertib)	log2 fold change (doramapimod)	log2 fold change (bafetinib)	log2 fold change [2]	log2 fold change (nilotinib)	log2 fold change [3]	log2 fold change (dasatinib)	log2 fold change [4]	log2 fold change [5]	log2 fold change (quisinostat)	log2 fold change (tipifarnib)	log2 fold change [6]	log2 fold change [7]	log2 fold change [8]
C8orf37 (UniProt Q96NL8)	inactive: -0.095	inactive: 0.006	inactive: 0.043	active: -0.559	inactive: 0.046	inactive: -0.06	inactive: 0.006	inactive: 0.043	inactive: 0.09	inactive: 0.238	–	–	inactive: 0.083	–	inactive: 0.056	inactive: 0.004	–	inactive: -0.01	inactive: 0.298	inactive: 0.029
BUB3 (UniProt O43684)	inactive: 0.022	inactive: -0.026	inactive: 0.044	inactive: -0.046	inactive: 0.019	inactive: 0.013	inactive: -0.009	inactive: 0.079	inactive: -0.024	inactive: 0.019	inactive: 0.005	inactive: -0.041	inactive: -0.012	inactive: -0.02	inactive: -0.005	inactive: -0.011	inactive: 0.008	inactive: 0.016	inactive: -0.005	inactive: 0.03
